Results from article PMC4503722, “Novel Phenotypic Outcomes Identified for a Public Collection of Approved Drugs from a Publicly Accessible Panel of Assays” (PLoS ONE, 2015).

System: nuclear β-catenin in C2C12 cells
Assay: cells
Assay type: cell-based
Details: Mus musculus, C2C12, read-out: Wnt pot. EC50

**Q.** Which EC50 does the source give for CCCNCC(O)COc1ccccc1C(=O)CCc1ccccc1 (stereo not shown) [propafenone, reference compound] here?
**A.** > 10 µM
